Source: US10702592B2, “Peptides and combination of peptides for use in immunotherapy against NHL and other cancers” (Immatics Biotechnologies GmbH, priority 2016, dated 2020)

Key:
[1] = test system: NHL samples; assay: Identification and label-free LC-MS quantitation of HLA-presented peptides: presentation profile/score, NHL vs normal tissues; design: species or system human; key: very highly over-presented on tumors compared to a panel of normal tissues (+++); highly over-presented on tumors compared to a panel of normal tissues (++); over-presented on tumors compared to a panel of normal tissues (+); settings: NHL tumors compared to a panel of normal tissues
[2] = test system: other tumor types (tumor samples vs normal tissues); assay: LC-MS detection / over-presentation of peptides on additional tumor types; design: species or system human; settings: for Other relevant organs/diseases: additional tumor types on which the peptide was found: over-presented on more than 5% of measured tumor samples, or presented on more than 5% with ratio of geometric means tumor vs normal tissues larger than 3; for Other relevant organs / diseases (additional tumor types with over-presentation): over-presented on >5% of measured tumor samples, or presented on >5% with ratio of geometric means tumor vs normal >3

Row | Substance | Peptide Presentation [1] | Other relevant organs/diseases [2] | Other relevant organs / diseases (additional tumor types with over-presentation) [2]
1 | 96 (LLLNENESLFL; listed as Homo sapiens) [compound 96] | +++ | HCC, CLL, BRCA, Melanoma, OC, Uterine Cancer | HNSCC
2 | 166 (SLFSEVASL; listed as Homo sapiens) [compound 166] | +++ | Melanoma | AML
3 | 122 (AISEAQESV; listed as Homo sapiens) [compound 122] | + | RCC, CLL, BRCA, Uterine Cancer | HNSCC
4 | 144 (GLITQVDKL; listed as Homo sapiens) [compound 144] | +++ | AML | Esophageal Cancer
5 | 257 (FLQEWEVYA; listed as Homo sapiens) [compound 257] | +++ | CLL, AML, Melanoma, Urinary bladder cancer | 
6 | 303 (FVWEASHYL; listed as Homo sapiens) [compound 303] | ++ | NSCLC, CLL, Esophageal Cancer, Uterine Cancer, Gallbladder Cancer, Bile Duct Cancer | AML, HNSCC
7 | 28 (FLSNANPSL; listed as Homo sapiens) [compound 28] | +++ | CLL, BRCA, Uterine Cancer | SCLC, HNSCC
8 | 294 (KLYGPEGLELV; listed as Homo sapiens) [compound 294] | + | CLL | 
9 | 31 (KLYDEESLL; listed as Homo sapiens) [compound 31] | +++ | CLL, AML, Melanoma, Esophageal Cancer, Uterine Cancer | 
10 | 26 (FLGSFIDHV; listed as Homo sapiens) [compound 26] | +++ | Melanoma, OC, Uterine Cancer | SCLC, AML
11 | 9 (FLLDLDPLL; listed as Homo sapiens) [compound 9] | +++ | CLL | 
12 | 161 (NLMLELETV; listed as Homo sapiens) [compound 161] | +++ | Uterine Cancer | 
13 | 24 (AVLGFSFRL; listed as Homo sapiens) [compound 24] | +++ | CLL | AML
14 | 71 (VLLDYVGNVQL; listed as Homo sapiens) [compound 71] | +++ |  | HNSCC
15 | 67 (LLATVNVAL; listed as Homo sapiens) [compound 67] | +++ | CLL, Uterine Cancer | HNSCC
16 | 76 (ALADLVPVDVVV; listed as Homo sapiens) [compound 76] | +++ | SCLC, CLL, BRCA, Melanoma, Uterine Cancer | HNSCC
